{"source": "patent US20160271086A1", "about": "“METHODS AND COMPOSITIONS FOR INDUCING REGULATORY T-CELL GENERATION” (SLOAN-KETTERING INSTITUTE FOR CANCER RESEARCH, priority 2013, published 2016)", "system": "Flt3L-elicited DC", "assay": "Foxp3 induction by DC pre-treated with SCFA or TSA for 6 h, washed, co-cultured with naïve CD4+ T cells", "format": "cell-based, mouse", "description": "DC were expanded in vivo by subcutaneous injection of B16 melanoma cells secreting FLT3-ligand into the left hind flank of mice as indicated. Once tumors were visible, spleens from injected animals were dissociated in RPMI 1640 medium containing 1.67 U mL-1 liberase TL (Roche) and 50 μg mL-1 DNAse I (Roche) for 20 min at 37° C. with shaking EDTA was then added at a final concentration of 5 mM to stop digestion and the resulting homogenate was processed for CD11c+ cell isolation using the MACS mouse CD11c (N418) purification kit (Miltenyi Biotec).\nIn vitro Foxp3 induction assays were performed by co-culturing DC with 5.5×10^4 CD4+CD44loCD62LhiCD25-naïve T cells in the presence of 1 μg ml-1 of CD3 antibody, 1 ng mL-1 TGF-β, and 100 U ml-1 IL-2, in 96-well flat-bottom plates for 4 d. For Foxp3 induction in the presence of butyrate- or TSA-pretreated DC, TGF-β was used at 0.1 ng mL-1 final concentration. In vitro induction assays in the absence of DC were performed by incubating 5.5×10^4 naïve CD4+ T cells with 1 ng mL-1 TGF-β, 100 U ml-1 IL-2, and a 1:1 cell-to-bead ratio of CD3/CD28 T activator Dynabeads (Invitrogen). […] Proliferation of T cells was assessed by [3H]-thymidine incorporation during the final 8 h of culture.", "note": "At least one structure is not confirmed: it was looked up by name or label, or the drawing left a doubt."}
{"molecule": "CCCC(=O)O", "note": "[butyrate]", "values": [{"measurement": "butyrate-dependent potentiation of Foxp3 induction by DCs upon pertussis toxin pretreatment", "result": "remained unchanged"}]}
